Measurements reported in article PMC4859800.
No constants are given. Whether binding was seen depends on the method and setting.

The chains behind the UniProt entries cited, without tags or fusion partners. Where a name states a change or a piece, a line headed by the entry shows the natural chain unless it says otherwise.
UniProt Q03532: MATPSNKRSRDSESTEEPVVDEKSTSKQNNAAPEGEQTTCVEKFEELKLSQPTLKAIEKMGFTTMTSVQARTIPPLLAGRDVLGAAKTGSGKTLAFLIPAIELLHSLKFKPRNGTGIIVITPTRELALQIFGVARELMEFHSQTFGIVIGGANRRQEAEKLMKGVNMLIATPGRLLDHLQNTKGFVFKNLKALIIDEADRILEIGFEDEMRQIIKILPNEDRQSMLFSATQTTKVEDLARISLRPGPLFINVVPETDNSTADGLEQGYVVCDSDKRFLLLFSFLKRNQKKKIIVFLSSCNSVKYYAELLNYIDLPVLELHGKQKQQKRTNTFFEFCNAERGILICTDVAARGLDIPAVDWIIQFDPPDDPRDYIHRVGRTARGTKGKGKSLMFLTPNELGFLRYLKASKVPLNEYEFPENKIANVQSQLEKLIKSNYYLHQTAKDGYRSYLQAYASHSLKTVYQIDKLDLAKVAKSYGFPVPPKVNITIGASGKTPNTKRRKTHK

Key:
Experiment in all cases: two-hybrid; array-based Y2H matrix; preys in pACT2 (PJ69-4a) mated against 23 baits in pAS2-1 (PJ69-4α); growth on SD-Leu-Trp-His + 6 mM 3-AT greater than the negative control after 2 weeks
[1] = target: T1, Nug1 (Y2H bait, pAS2-1) (S. cerevisiae) (UniProt P40010)
T1 sequence: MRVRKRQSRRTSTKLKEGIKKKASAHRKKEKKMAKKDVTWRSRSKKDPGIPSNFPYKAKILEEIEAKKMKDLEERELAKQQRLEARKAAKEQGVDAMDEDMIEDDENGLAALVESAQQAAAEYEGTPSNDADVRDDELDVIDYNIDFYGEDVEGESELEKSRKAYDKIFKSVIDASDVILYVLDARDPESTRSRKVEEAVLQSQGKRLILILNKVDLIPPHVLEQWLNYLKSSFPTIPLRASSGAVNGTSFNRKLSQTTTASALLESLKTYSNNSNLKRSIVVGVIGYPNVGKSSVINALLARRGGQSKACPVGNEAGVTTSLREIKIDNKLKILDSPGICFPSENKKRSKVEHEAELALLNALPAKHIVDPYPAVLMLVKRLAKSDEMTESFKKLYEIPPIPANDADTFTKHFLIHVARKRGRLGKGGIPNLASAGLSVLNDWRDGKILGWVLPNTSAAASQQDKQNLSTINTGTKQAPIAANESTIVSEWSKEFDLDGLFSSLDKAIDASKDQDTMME

[2] = target: T2, Drs1 (Y2H bait, pAS2-1) (S. cerevisiae) (UniProt P32892)
T2 sequence: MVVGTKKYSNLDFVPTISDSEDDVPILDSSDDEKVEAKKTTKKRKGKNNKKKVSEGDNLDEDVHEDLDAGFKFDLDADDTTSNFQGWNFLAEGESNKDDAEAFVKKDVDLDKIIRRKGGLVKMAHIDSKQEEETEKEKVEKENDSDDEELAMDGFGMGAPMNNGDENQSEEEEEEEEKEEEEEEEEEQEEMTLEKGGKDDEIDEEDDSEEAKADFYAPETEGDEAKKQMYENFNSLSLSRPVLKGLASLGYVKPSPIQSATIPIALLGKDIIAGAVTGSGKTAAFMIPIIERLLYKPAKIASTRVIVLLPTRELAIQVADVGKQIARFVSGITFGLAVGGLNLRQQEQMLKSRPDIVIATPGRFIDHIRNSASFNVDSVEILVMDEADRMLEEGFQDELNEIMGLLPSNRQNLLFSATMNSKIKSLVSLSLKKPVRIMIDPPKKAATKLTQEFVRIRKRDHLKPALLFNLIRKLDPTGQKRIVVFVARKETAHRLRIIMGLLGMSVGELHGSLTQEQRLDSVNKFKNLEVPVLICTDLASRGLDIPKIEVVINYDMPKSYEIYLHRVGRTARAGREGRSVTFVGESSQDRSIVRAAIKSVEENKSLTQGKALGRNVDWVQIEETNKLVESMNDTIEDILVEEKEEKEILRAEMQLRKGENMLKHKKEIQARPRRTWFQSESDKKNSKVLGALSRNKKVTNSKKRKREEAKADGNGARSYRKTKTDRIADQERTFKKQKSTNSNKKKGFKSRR

[3] = target: T3, Nop13 (Y2H bait, pAS2-1) (S. cerevisiae) (UniProt P53883)
T3 sequence: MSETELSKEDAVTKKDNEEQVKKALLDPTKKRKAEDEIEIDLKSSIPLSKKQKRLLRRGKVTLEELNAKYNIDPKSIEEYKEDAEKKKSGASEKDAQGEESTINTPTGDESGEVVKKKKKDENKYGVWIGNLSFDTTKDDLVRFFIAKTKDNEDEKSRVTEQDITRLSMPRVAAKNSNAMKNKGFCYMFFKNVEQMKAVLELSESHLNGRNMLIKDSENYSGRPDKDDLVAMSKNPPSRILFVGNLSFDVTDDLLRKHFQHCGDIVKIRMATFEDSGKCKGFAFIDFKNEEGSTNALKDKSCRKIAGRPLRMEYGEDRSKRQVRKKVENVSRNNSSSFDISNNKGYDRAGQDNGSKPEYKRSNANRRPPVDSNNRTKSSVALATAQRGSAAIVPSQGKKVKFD

[4] = target: T4, Nog1 (Y2H bait, pAS2-1) (S. cerevisiae) (UniProt Q02892)
T4 sequence: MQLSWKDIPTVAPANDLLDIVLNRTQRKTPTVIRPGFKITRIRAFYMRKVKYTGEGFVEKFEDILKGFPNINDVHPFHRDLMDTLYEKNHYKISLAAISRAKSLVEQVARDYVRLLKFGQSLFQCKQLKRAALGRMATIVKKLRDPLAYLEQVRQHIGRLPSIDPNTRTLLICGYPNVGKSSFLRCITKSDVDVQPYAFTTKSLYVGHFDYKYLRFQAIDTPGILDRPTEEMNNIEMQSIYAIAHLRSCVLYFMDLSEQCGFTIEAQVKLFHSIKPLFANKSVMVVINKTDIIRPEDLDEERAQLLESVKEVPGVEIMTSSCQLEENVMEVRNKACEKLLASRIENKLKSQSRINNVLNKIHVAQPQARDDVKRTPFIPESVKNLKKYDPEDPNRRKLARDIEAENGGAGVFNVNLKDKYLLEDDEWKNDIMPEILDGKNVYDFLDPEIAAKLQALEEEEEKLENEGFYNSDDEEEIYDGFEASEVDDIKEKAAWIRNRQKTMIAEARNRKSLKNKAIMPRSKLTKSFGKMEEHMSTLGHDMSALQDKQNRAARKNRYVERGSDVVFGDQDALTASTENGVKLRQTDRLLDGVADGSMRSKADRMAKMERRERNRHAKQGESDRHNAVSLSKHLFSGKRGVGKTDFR

[5] = target: Has1 (Y2H bait, pAS2-1) (S. cerevisiae) (UniProt Q03532)

Measured: binding

B1: Nop4 RRM 1–2 (Y2H prey, pACT2) (domain or fragment, UniProt P37838 1-250)
chain: MEETIENVEVPSSNVSKQNDDGLDMKTLFVRSIPQDVTDEQLADFFSNFAPIKHAVVVKDTNKRSRGFGFVSFAVEDDTKEALAKARKTKFNGHILRVDIAKRRDRSKKTSEVVEKSTPESSEKITGQNNEDEDDADGEDSMLKGKPKLIIRNMPWSCRDPVKLKKIFGRYGTVVEATIPRKRDGKLCGFAFVTMKKISNCRIALENTKDLKIDGRKVAVDFAVQKNRWEDYKKAQPEMNDKDDNESGNE
no binding: all assays above
